Measurements from paper PMC7392006.
Residue numbers refer to the chain shown, from its start. Results are given in words; binding and its absence hold for the method and conditions named. In cells and extracts the contact can be indirect. Some binding calls cover weakened binding; strength is not graded here.

Legend:
Test in all cases: co-IP; FLAG- or MYC-tagged proteins and domains expressed in HEK293T (293T) cells, transfected for 48 hours
[1] = molecular target: T1, JMJD2D, expressed in HEK293T (UniProt Q6B0I6)
T1 sequence: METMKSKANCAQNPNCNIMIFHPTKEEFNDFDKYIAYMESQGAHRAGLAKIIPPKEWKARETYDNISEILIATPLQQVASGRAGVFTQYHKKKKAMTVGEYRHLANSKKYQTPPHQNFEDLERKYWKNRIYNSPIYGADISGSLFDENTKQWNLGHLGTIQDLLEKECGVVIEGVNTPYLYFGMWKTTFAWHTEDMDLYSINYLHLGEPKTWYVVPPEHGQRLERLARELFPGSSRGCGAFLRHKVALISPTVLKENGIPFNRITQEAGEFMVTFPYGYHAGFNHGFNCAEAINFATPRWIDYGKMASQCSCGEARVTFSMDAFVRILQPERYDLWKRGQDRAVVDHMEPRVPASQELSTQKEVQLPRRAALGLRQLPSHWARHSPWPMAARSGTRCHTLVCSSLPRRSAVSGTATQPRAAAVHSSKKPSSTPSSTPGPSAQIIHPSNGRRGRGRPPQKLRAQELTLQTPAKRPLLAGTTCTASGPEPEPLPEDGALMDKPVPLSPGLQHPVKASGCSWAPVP

JMJD2D-S200M = molecular target: T2, JMJD2D-S200M (UniProt Q6B0I6)
T2 sequence: T1 sequence with S200M

[2] = molecular target: T3, JMJD2D C-terminal domain (amino acids 313-523) (UniProt Q6B0I6)
T3 sequence: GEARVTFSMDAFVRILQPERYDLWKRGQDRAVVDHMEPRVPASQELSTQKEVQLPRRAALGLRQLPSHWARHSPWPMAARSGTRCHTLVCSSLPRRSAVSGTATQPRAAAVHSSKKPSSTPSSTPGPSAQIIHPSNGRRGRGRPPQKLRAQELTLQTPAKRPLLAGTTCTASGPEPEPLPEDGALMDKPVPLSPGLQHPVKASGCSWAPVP

binding [1]	binding (JMJD2D-S200M)	binding [2]	Substance
binds			p53 DNA binding domain (DBD, amino acids 101-300) (from UniProt P04637 101-300) (domain or fragment)
	binds	binds	p53, expressed in HEK293T (from UniProt P04637 1-393)
